In this data set the target is 6xHis-RepB(pAMI4) (UniProt S5YGU8). Put plainly: EMSA. The note with it: salmon sperm competitor DNA, 10 mM MgCl2, three complexes, concentration dependent, 40 mM Tris-HCl pH 8.0, 10 mM MgCl2, 1 mM DTT, 100 mM KCl, 10% BSA, room temperature, 1 pmol FAM-DNA, 5% PAGE in 0.5x TBE, recombinant protein, residues 1-307, protein details: N-terminal 6xHis (pET28b(+), NdeI/HindIII), label: FAM (on M13pUCr primer), probe letters rebuilt from the primers and the genome, part of a longer molecule.

The exact form of at least one protein or probe is not confirmed.

Data on one sequence can be found in paper PMC9040568.

“CTTATGGGATTCATCGCCGCTGTTGACAGCTGTCAACTCGTGTTGAAGCGTCGCTATAAAAAAGATAATTACCACTAATATACTGATATAATCATATTTTATTAAATTTATGTCCACACCCATGAGAACCCAAATGCCGTCACCCTGGCCCCGCATCCATCCCTCGCAATCCAACCAAGGCGAGCGGCTCCCGCATACACCATAGCTCAGCCTGAGATCCAACACGCGACCGCACAATCTGTGACCCAGCCAAAAAACTCTAAAGAACCCATTCGTCGGCGACGAGTTGACAGCTGTCAACGAGGCTGGTGAACGGAATCCGACAACCGCAAATGCGCCTCCCCCTCTCTGCGCAATCTCTCCGCGGCAGCACTCGCAAAACCGCCTCGGCACAAAGCATGAGTTCAACTGTCGAAGGCATCACAACTTGCAAACGAAGGACCCGAAGTTCGGCCAGCCCGACACCGCAAGAGAGCTCGGTTGACAGCTGTCAACTCGGGCTGGCTCGCGACAGATTTG (double strand) [3parS region]”: the binding result was “binds”.
